Measured values: patent publication US20220057378A1, “MICROBIAL MI[…]” (priority 2015, published 2022)

Tested on: GFP sensor strains
Experiment: SVM classification of GFP sensor responses (toxin / no toxin)
Type: cell-based
Source text: Computational models to determine the threshold of detection for specific sensors based on models of experimental GFP responses. We used machine learning techniques to determine the relationships between the GFP output signal and the presence of a toxin. We have created a database containing the collected sensor response data. We have quantified the GFP threshold of detection for each sensor construct. We have constructed Receiver Operating Characteristic (ROC) curves for each sensor to achieve robust sensing. We constructed machine learning models capable of inferring the relationships between the GFP sensor responses and the presence or absence of a toxin at a given concentration. The algorithm learns these relationships from a set of training samples (GFP sensor responses) defined by the set of experimental conditions from which they were generated. The aim of the algorithm is to provide a general method capable of determining the experimental conditions associated with GFP sensor responses through the use of historical data. Specifically, we have built classification models based on Support Vector Machines (SVMs), which is one of the most popular classifiers due to its excellent performance in many contexts and its solid mathematical basis (1). For each toxin and concentration, we solved a binary classification problem in which the positive class represents the presence of the toxin in water and the negative class is associated with clean environments. Patterns were constructed with features containing GFP sensor responses at various timestamps to capture the temporal dynamics of the GFP signal. The optimal meta-parameters of the SVM classifier were determined by applying a 5-crossvalidation during the training phase (2). In order to have a reliable estimate of the performance of the model when deployed in real environments, we measured its performance over a set of samples (test patterns) not seen during the training phase. The SVM's performance was determined by the percentage of test samples correctly labeled as toxin/no toxin (classification accuracy). 80% of samples were used for training the SVM models and the remaining 20% of samples was used to evaluate their effectiveness. We generated 20 random training/test partitions to have an estimate of performance independent of the data partition.
Specifically, we have built classification models based on Support Vector Machines (SVMs), which is one of the most popular classifiers due to its excellent performance in many contexts and its solid mathematical basis. For each toxin and concentration, we solved a binary classification problem in which the positive class represents the presence of the toxin in water and the negative class is associated with clean environments. Patterns were constructed with features containing GFP sensor responses at various timestamps to capture the temporal dynamics of the GFP signal. The optimal meta-parameters of the SVM classifier were determined by applying a 5-crossvalidation during the training phase.
In order to have a reliable estimate of the performance of the model when deployed in real environments, we measured its performance over a set of samples (test patterns) not seen during the training phase. The SVM's performance was determined by the percentage of test samples correctly labeled as toxin/no toxin (classification accuracy). 80% of samples were used for training the SVM models and the remaining 20% of samples was used to evaluate their effectiveness. We generated 20 random training/test partitions based on data collected in single-strain chips (no crosstalk data) to have an estimate of performance.

`[Cd]` [Cadmium] showed a Classification accuracy (toxin conc. 0.022 μM) of 65.00%, a Classification accuracy (toxin conc. 0.044 μM) of 54.16% and a Classification accuracy (toxin conc. 0.44 μM) of 90.00%.

Molecule `CCOC(=O)CC(SP(=S)(OC)OC)C(=O)OCC` (stereo not drawn) [Malathion, malathion] has a Classification accuracy (toxin conc. 145 mg/L) of 89.17%.

Work on `[Cu]` [Copper] yielded a Classification accuracy (toxin conc. 5 μM) of 95.00%, a Classification accuracy (toxin conc. 10 μM) of 96.67% and a Classification accuracy (toxin conc. 20 μM) of 95.00%.

Molecule `[Cr+6]` [Chromium(VI)] has a Classification accuracy (toxin conc. 1.25 μM) of 96.67%, a Classification accuracy (toxin conc. 2.5 μM) of 97.50% and a Classification accuracy (toxin conc. 5 μM) of 94.17%.

Ammonium showed a Classification accuracy (toxin conc. 1 ppm) of 71.05% and a Classification accuracy (toxin conc. 5 ppm) of 91.79%.

`[Pb]` [Lead] was tested, and the Classification accuracy (toxin conc. 1.8 μM) was 95.83%, the Classification accuracy (toxin conc. 3.6 μM) was 95.00% and the Classification accuracy (toxin conc. 7.2 μM) was 95.00%.
